{"sequences": {"note": "By UniProt entry, the sequences of proteins in these tests, tags left out.", "UniProt Q8NER1, whole entry, looked up": "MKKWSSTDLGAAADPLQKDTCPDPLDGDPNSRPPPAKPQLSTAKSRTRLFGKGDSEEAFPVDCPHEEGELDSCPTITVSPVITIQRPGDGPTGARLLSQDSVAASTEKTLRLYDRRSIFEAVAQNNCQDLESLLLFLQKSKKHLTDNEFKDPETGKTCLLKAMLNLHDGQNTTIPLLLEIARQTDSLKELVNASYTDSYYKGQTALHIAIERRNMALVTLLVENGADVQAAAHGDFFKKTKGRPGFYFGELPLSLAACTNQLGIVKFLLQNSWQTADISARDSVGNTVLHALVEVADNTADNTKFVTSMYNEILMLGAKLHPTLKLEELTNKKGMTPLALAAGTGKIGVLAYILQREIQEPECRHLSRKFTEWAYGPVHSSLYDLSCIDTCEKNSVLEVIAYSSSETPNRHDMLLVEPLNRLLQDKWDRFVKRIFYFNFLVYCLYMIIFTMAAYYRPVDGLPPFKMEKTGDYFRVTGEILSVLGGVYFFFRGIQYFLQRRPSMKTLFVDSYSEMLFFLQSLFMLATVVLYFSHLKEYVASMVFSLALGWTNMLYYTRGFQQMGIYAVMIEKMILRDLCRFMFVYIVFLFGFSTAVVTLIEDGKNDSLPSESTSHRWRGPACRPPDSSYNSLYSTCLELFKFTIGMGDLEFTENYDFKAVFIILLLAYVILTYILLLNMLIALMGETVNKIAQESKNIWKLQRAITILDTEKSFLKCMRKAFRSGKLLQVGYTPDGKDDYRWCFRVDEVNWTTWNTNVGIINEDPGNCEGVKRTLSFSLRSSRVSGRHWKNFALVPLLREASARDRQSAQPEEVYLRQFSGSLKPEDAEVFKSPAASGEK"}, "source": "PubChem BioAssay AID540275", "about": "(National Center for Advancing Translational Sciences (NCATS), 2011)", "note": "The whole screen tested about 320,000 compounds, of which about 620 (0.19%) were called active. Inconclusive results, whose numbers are uncertain, are shown with a selection of clear calls. Cut-off read from the data, not from the text of the source: active = activation above about 80%; inconclusive = between about 30% and that limit; inactive = weaker than that."}
{"molecular_target": "Transient receptor potential cation channel subfamily V member 1 (Homo sapiens) (UniProt Q8NER1)", "assay": "HTS Assay for Compounds that Act as Agonists of the Vanilloid Receptor 1; note: 0% is about no effect", "settings": "TRPV1-expressing cells, Fluo-8 calcium influx, agonist mode; at 8.33 µM, hits give high values", "how_it_was_run": "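TRPV1-expressing cells were cultured overnight at 35.5C and loaded with Fluo-8 calcium dye for 40 to 90 min at room temperature. After a 10 s baseline, compound was added and calcium influx was read kinetically for 3 min (ex 480/em 520 nm).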"}
{"smiles": "CCn1c(CSCc2ccc(C)cc2)nnc1SCC(=O)N1CCN(c2ccccc2)CC1", "activation": "inactive: 3.86%"}
{"smiles": "CCc1nc(SCC(=O)NCc2ccco2)c2c(=O)n(C)c(=O)n(C)c2n1", "activation": "inconclusive: 70.5%"}
{"smiles": "CC1(C)Cc2cccc(OCC(=O)Nc3ccccc3C(F)(F)F)c2O1", "activation": "inconclusive: 42.4%"}
{"smiles": "CCOc1ccc(NC(=O)c2ccc(N)cc2)cc1", "activation": "inconclusive: 37.1%"}
{"smiles": "COc1ccc(CNC(=O)C(c2ccncc2)N(C(=O)Cc2cccs2)c2ccccc2)cc1", "note": "(stereo not given)", "activation": "inactive: -1.89%"}
{"smiles": "CC(=O)N(CCc1cccc(C)c1)Cc1cc2cc(C)ccc2[nH]c1=O", "activation": "inconclusive: 44%"}
{"smiles": "CN(C)c1ccc(NC(=O)c2ccncc2)c2ccccc12", "activation": "inconclusive: 78%"}
{"smiles": "Cn1c(SC(C(=O)Nc2ccc(F)cc2)c2ccccc2)nc2ccccc21", "note": "(stereo not given)", "activation": "active: 84.6%"}
{"smiles": "COc1ccc2nc(-c3ccccc3)cc(C(=O)OCC(=O)N3CCCCC3)c2c1", "activation": "inconclusive: 71.3%"}
{"smiles": "CCOC(=O)C1=C(N)n2c(s/c(=C\\c3ccco3)c2=O)=C(C(=O)OC(C)C)C1c1ccco1", "note": "(stereo not given)", "activation": "inconclusive: 68.4%"}
{"smiles": "Cc1noc(/C=C/c2ccccc2F)c1S(=O)(=O)N1CCC(C(=O)N2CCN(C)CC2)CC1", "activation": "inconclusive: 46.1%"}
{"smiles": "CC1CC(C)CN(C(=O)C(NS(=O)(=O)c2ccc(Br)s2)c2ccccc2)C1", "note": "(stereo not given)", "activation": "inconclusive: 36.4%"}
{"smiles": "CC(C)(C)NC(=O)Cn1nnc(-c2ccc(Cl)cc2)n1", "activation": "inactive: 4.82%"}
{"smiles": "C/C(N)=C(/C#N)C(=O)CSc1nc2ccccc2c(=O)n1CCCOC(C)C", "activation": "inconclusive: 41.1%"}
{"smiles": "CCOC(=O)c1c(S(=O)(=O)NCc2ccco2)c(C)n(C)c1C", "activation": "inactive: -1.74%"}
{"smiles": "S=C(NCc1cccs1)Nc1ccc(Cl)cc1", "activation": "inconclusive: 41.1%"}
{"smiles": "COc1ccccc1-c1cc(C(=O)Nc2cccnc2)no1", "activation": "inconclusive: 47.2%"}
{"smiles": "COc1ccc(CCNc2ncnc3sc(C)cc23)cc1OC", "activation": "inconclusive: 37.3%"}
{"smiles": "COc1ccc(C(CCNCc2ccc(N(C)C)cc2)c2ccccc2OC)cc1", "note": "(stereo not given)", "activation": "inactive: 9.24%"}
{"smiles": "Cc1ccccc1OCC(O)CN1C(=O)c2ccccc2C1=O", "note": "(stereo not given)", "activation": "inconclusive: 31.2%"}
{"smiles": "Cc1ccc(SCC(=O)c2c(C)nc3cc(C)ccn23)cc1", "activation": "inconclusive: 42.1%"}
{"smiles": "O=C(N/N=C/c1cccc([N+](=O)[O-])c1)c1cccc(Br)c1", "activation": "inconclusive: 62.9%"}
{"smiles": "Cn1nc(C(=O)NC2CCCN(Cc3ccccc3F)C2)c2ccccc2c1=O", "note": "(stereo not given)", "activation": "inconclusive: 43.1%"}
{"smiles": "COc1cc2c(cc1OC)CN(S(=O)(=O)/C=C/c1ccccc1)CC2", "activation": "inconclusive: 45.5%"}
{"smiles": "CC1CCCN(c2ccc(C(=O)Nc3cccnc3)cc2[N+](=O)[O-])C1", "note": "(stereo not given)", "activation": "active: 87.3%"}
{"smiles": "O=C(CN1CCC(Cc2ccccc2)CC1)Nc1ccc2c(c1)OCCO2", "activation": "inconclusive: 34.2%"}
{"smiles": "O=C(CCCN1C(=O)C(c2ccccc2)Oc2cccnc21)Nc1ccccc1Cl", "note": "(stereo not given)", "activation": "inconclusive: 34.6%"}
{"smiles": "Fc1ccc(-n2cc(CNCCc3ccccn3)c(-c3ccccc3Cl)n2)cc1", "activation": "inactive: 24.8%"}
{"smiles": "NC(=O)C1CCN(C(=O)/C=C/c2cccc(Br)c2)CC1", "activation": "inconclusive: 64.3%"}
{"smiles": "COc1ccccc1NC(=O)CSc1nnc(-c2ccoc2C)n1CCc1ccccc1", "activation": "inconclusive: 35.7%"}
{"smiles": "O=C(/C=C/c1cccc2ccccc12)c1ccncc1", "activation": "inconclusive: 40.6%"}
{"smiles": "Cc1ccccc1OCC(=O)NNC(=O)Nc1ccc(Cl)cc1", "activation": "inactive: 2.84%"}
{"smiles": "O=c1c2ccc(Cl)cc2[nH]c(=S)n1Cc1cccnc1", "activation": "inconclusive: 40.2%"}
{"smiles": "COc1cc(NC(C)=O)c2ncccc2c1[N+](=O)[O-]", "activation": "inactive: -5.26%"}
{"smiles": "Cc1occc1C(=O)NCCCc1ccccc1", "activation": "inconclusive: 37.3%"}
{"smiles": "CCN(CC)S(=O)(=O)c1ccc(/C=C/C(=O)Nc2ccc(F)c(F)c2F)cc1", "activation": "inconclusive: 53.1%"}
{"smiles": "O=C(CSCc1c(F)cccc1F)Nc1ccccc1", "activation": "inconclusive: 37.3%"}
{"smiles": "O=C(CCSCc1ccccc1F)N1CCN(c2ccccn2)CC1", "activation": "inconclusive: 30.4%"}
{"smiles": "O=C(CSc1ccc(-c2ccccc2)nn1)Nc1ccc2c(c1)OCCO2", "activation": "inconclusive: 49.8%"}
{"smiles": "Cc1cc(=O)oc2cc(OC(C)C(=O)Nc3nccs3)ccc12", "note": "(stereo not given)", "activation": "inactive: -0.874%"}
{"smiles": "C/C(=N\\NC(=O)CCc1ccccc1)c1ccc(Br)cc1", "activation": "inconclusive: 46.6%"}
{"smiles": "COc1ccc(Nc2nc(N)nc(CSC(=S)N3CCOCC3)n2)cc1", "activation": "inconclusive: 48.5%"}
{"smiles": "N=c1c(C(=O)NC2CCCC2)cc2c(=O)n3ccccc3nc2n1Cc1ccccc1", "activation": "inconclusive: 57.2%"}
{"smiles": "CCN(CC)c1ccc(-c2n[nH]c(=S)n2-c2ccccc2C)cc1", "activation": "inactive: -6.94%"}
{"smiles": "CC(C)c1ccc(/C=C/C(=O)N2CCCCCC2)cc1", "activation": "inconclusive: 64.9%"}
{"smiles": "Cc1ccccc1OCc1occc1C(=O)Nc1cccc(-n2cnnn2)c1", "activation": "inconclusive: 79.2%"}
{"smiles": "O=C(NC(=S)Nc1ccccc1N1CCCCC1)c1ccc(F)cc1Cl", "activation": "inconclusive: 50.4%"}
{"smiles": "CCOc1ccc2nc(NC(=O)c3ccco3)sc2c1", "activation": "inconclusive: 51.8%"}
{"smiles": "O=[N+]([O-])c1ccccc1/C=N/Nc1nnc(-c2ccccc2)c(-c2ccccc2)n1", "activation": "inactive: 1.18%"}
{"smiles": "CCC(C)c1ccc(Nc2ncccc2C#N)cc1", "note": "(stereo not given)", "activation": "inconclusive: 31.5%"}
{"smiles": "CC(C)(C)c1csc(NNC(=O)c2ccc(Cl)cc2)n1", "activation": "inconclusive: 74.4%"}
{"smiles": "CC1CCN(S(=O)(=O)c2ccc3c(c2)N(C)C(=O)CC(=O)N3C)CC1", "activation": "inactive: 2.02%"}
{"smiles": "COc1cccc(N2CCN(C(=O)c3ccc4nc(N5CCC(C)CC5)sc4c3)CC2)c1", "activation": "inconclusive: 43.4%"}
{"smiles": "CCOC(=O)C1=C(COC(=O)c2ncc(Cl)c(Cl)c2Cl)NC(=O)NC1C", "note": "(stereo not given)", "activation": "inconclusive: 43.4%"}
{"smiles": "O=C(CSc1nc(C2CCCCC2)n(-c2ccccc2)n1)NCCN1C(=O)CSC1=O", "activation": "inconclusive: 37.7%"}
{"smiles": "CCc1ccc(/C=C2\\SC(=S)N(CCCC(=O)Nc3ccccn3)C2=O)cc1", "activation": "inactive: 5.18%"}
{"smiles": "O=C(Nc1nc2ccccc2[nH]1)c1cccc(F)c1", "activation": "inconclusive: 37.1%"}
{"smiles": "O=C(COC(=O)c1c2c(nc3ccccc13)/C(=C\\c1cccs1)CCC2)Nc1ccccc1", "activation": "inconclusive: 32.1%"}
{"smiles": "FC(F)(F)c1cccc(N2CCN(c3nnnn3-c3ccccc3)CC2)c1", "activation": "inconclusive: 35%"}
{"smiles": "CCOC(=O)c1cnc2ccc(OCC)cc2c1NCc1cccnc1", "activation": "inconclusive: 37.2%"}
{"smiles": "COc1ccc(CCNC(=O)C2CC(=O)N(c3ccccc3)C2)cc1OC", "note": "(stereo not given)", "activation": "inactive: 3.09%"}
{"smiles": "CCOc1ccc(Nc2ccnc3cc(Cl)ccc23)cc1", "activation": "inconclusive: 38.7%"}
{"smiles": "CCCc1cc(C(=O)N2CCCC(C(=O)c3ccc(Cl)cc3)C2)n(C)n1", "note": "(stereo not given)", "activation": "inactive: 17.4%"}
{"smiles": "O=C(NCCn1cc(SCc2ccccc2)c2ccccc21)c1c(F)cccc1F", "activation": "inconclusive: 52.4%"}
{"smiles": "CNC(=O)c1ccc(Nc2nc(-c3ccccc3)nc3ccccc23)cc1", "activation": "inconclusive: 59.6%"}
{"smiles": "Cc1ccc(NC(=O)OCCNC(=O)OC(C)C)cc1", "activation": "inconclusive: 38.1%"}
{"smiles": "CCOc1ccc(N2CC(C(=O)Nc3ccc4c(c3)OCCO4)CC2=O)cc1", "note": "(stereo not given)", "activation": "inconclusive: 76.2%"}
{"smiles": "CCOc1ccc(NC2c3ccccc3C(=O)N2Cc2ccc3c(c2)OCO3)cc1", "note": "(stereo not given)", "activation": "inconclusive: 74.5%"}
{"smiles": "O=C(Nc1ccc(OC(F)(F)F)cc1)N1CCN(c2ccnc3cc(Cl)ccc23)CC1", "activation": "inconclusive: 34.8%"}
{"smiles": "Cc1ccc(C(=O)Nc2cnc3ccccn3c2=O)cc1", "activation": "inconclusive: 31%"}
{"smiles": "Cc1cc(OCCCCN2C(=O)NC(C)(C)C2=O)ccc1[N+](=O)[O-]", "activation": "inconclusive: 46.6%"}
{"smiles": "O=C(Nc1ccccc1)C1CCCN(C(=O)c2ccc(Cl)cc2)C1", "note": "(stereo not given)", "activation": "inconclusive: 41.9%"}
{"smiles": "CCCn1c(SC(C)C(=O)N2CCOCC2)nc2ccc(Br)cc2c1=O", "note": "(stereo not given)", "activation": "active: 83.3%"}
{"smiles": "C[N+]1(CC(O)COCC2COc3ccccc3O2)CCOCC1", "note": "(stereo not given)", "activation": "inactive: 0.731%"}
{"smiles": "CCCCNC(=O)c1cn(CC)c2ccc(S(=O)(=O)N3CCCCCC3)cc2c1=O", "activation": "inconclusive: 63.9%"}
{"smiles": "CN1CCS/C1=C/C=C1/SC(=S)N(Cc2ccccc2)C1=O", "activation": "inconclusive: 37%"}
{"smiles": "Cc1ccc(OCCNC(=O)c2cccc(C)c2)cc1", "activation": "inconclusive: 56.2%"}
{"smiles": "O=[N+]([O-])c1ccccc1/C=N/Nc1nc(N2CCCC2)nc(N2CCCC2)n1", "activation": "inconclusive: 39%"}
{"smiles": "Cc1cccc(N(Cc2ccccc2)C(=O)Cc2ccc(S(=O)(=O)N3CCOCC3)s2)c1", "activation": "inconclusive: 37%"}
{"smiles": "COc1ccc(-c2nnn(Cc3ccccc3F)n2)cc1", "activation": "inconclusive: 37.6%"}
{"smiles": "CCn1c(SCC(=O)Nc2cccc(C(C)=O)c2)nnc1C(C)C", "activation": "inactive: 6.94%"}
{"smiles": "CCCC(=O)N1CCN(c2nc(CC(C)C)c3c(c2C#N)CCC3)CC1", "activation": "active: 83.2%"}
{"smiles": "CCOC(=O)c1cc(C)n(Cc2ccccc2)c1C", "activation": "inconclusive: 32.5%"}
{"smiles": "COc1ccc(-c2c(C)nc(N)nc2-c2ccc(OC)cc2O)cc1", "activation": "inconclusive: 35.7%"}
{"smiles": "O=c1c2ccccc2nc(/C=C/c2ccc(Br)cc2)n1CCCO", "activation": "inconclusive: 36.8%"}
{"smiles": "O=C(C1CCCC1)N1CCN(S(=O)(=O)c2ccc(F)cc2)CC1", "activation": "inconclusive: 38.4%"}
{"smiles": "COc1cccc(-c2cc(C(=O)N3CCc4ccccc4C3)[nH]n2)c1", "activation": "inactive: 28.7%"}
{"smiles": "COc1ccc(C(=O)c2c(C)c3cc(C)ccc3n2CC(O)CN2CCOCC2)cc1", "note": "(stereo not given)", "activation": "inconclusive: 40.2%"}
{"smiles": "CCC(=O)N1CCN(c2ccccc2NC(=O)COc2cccc(C)c2C)CC1", "activation": "inconclusive: 31.9%"}
{"smiles": "COc1ccc(C(C(=O)NC2CCCC2)N(C(=O)c2snc(C(N)=O)c2N)c2cccc(O)c2)cc1", "note": "(stereo not given)", "activation": "inactive: -4.24%"}
